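Mouse JNK3 kinase in lysate of cytokine-stimulated human HepG2 cells; biotin-c-Jun phosphorylation read by AlphaScreen luminescence after a 2 h reaction and 3 h bead step. Each compound ran as a dilution series from about 0.6 nM up to 57.1 µM. Fitted AC50 for either an inhibiting or an activating curve; a lower value means greater potency. Calls come from the fitted dose curve (inhibitor, activator, inactive or inconclusive); every row here is inconclusive, including some full curves, so the exact cut-off is unclear.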

Values are in µM. All entries here are filed as inconclusive. These entries are mostly ones the record files as inconclusive; other results of the assay are not listed here. Potencies fitted to partial, single-point or poorly fitting curves are rough. Some entries filed as inconclusive have a full curve. The first word of each remark tells which way the curve ran; it can be opposite to the aim of the assay.

| # | compound | Potency (µM) | curve as filed |
|---|---|---|---|
| 1 | `CN(C)CCC[C@@]1(c2ccc(F)cc2)OCc2cc(C#N)ccc21` | 0.01585 | activator, full curve, poor fit |
| 2 | `CN(Cc1cnc2nc(N)nc(N)c2n1)c1ccc(C(=O)N[C@H](CCC(=O)O)C(=O)O)cc1` | 1.259 | activator, partial curve, poor fit |
| 3 | `C=CCN1CC[C@]23c4c5ccc(O)c4O[C@@H]2C(=O)CC[C@@]3(O)[C@H]1C5` | 0.001259 | inhibitor, full curve, poor fit |
| 4 | `O=C1NCC2(CCN(CCc3ccccc3)CC2)O1` | 10 | activator, partial curve, poor fit |
| 5 | `CCCN(CCC)[C@@H]1CCc2cccc(O)c2C1` | 0.007943 | activator, full curve, poor fit |
| 6 | `COC(=O)[C@@]1(Cc2ccc(OC)cc2)[C@H]2c3cc(C(=O)N4CCCC4)n(CCc4ccccn4)c3C[C@H]2CN1C(=O)c1ccccc1` | 19.95 | inhibitor, partial curve |
| 7 | `CCCCC/C=C\C/C=C\CCCCCCCC(=O)O` | 19.95 | activator, partial curve |
| 8 | `CCCn1c(=O)c2c(ncn2C)n(CCC)c1=O` | 15.85 | activator, partial curve |
| 9 | `C[C@@]12C(=O)OC(=O)[C@@]1(C)[C@H]1CC[C@@H]2O1` | 0.005012 | activator, full curve, poor fit |
| 10 | `O=C(O)c1cc(=O)c2c(Cl)cc(Cl)cc2[nH]1` | 31.62 | inhibitor, partial curve, poor fit |
| 11 | `O=C(c1ccncc1)N1CCC2(CC1)CCN(c1cccc(-c3ccccc3)c1)CC2` | 25.12 | inhibitor, single point |
| 12 | `NCCS(=O)O` | 31.62 | activator, partial curve, poor fit |
| 13 | `Cc1ccc(N=Nc2c(O)ccc3cc(S(=O)(=O)O)ccc23)cc1` | 3.162 | inhibitor, partial curve |
| 14 | `CCCN(CC1CC1)c1nc(C)nc(Nc2c(Cl)cc(Cl)cc2Cl)c1Cl` | 15.85 | activator, single point |
| 15 | `NCCCCNS(=O)(=O)c1cccc2c(Cl)cccc12` | 25.12 | activator, partial curve, poor fit |
| 16 | `N[C@@H](CSS(=O)(=O)O)C(=O)O` | 31.62 | inhibitor, partial curve, poor fit |
| 17 | `O=C1C=C(NCCO)C(=O)c2cnccc21` | 12.59 | inhibitor, single point |
| 18 | `Brc1ccc(Oc2cc(Br)c(Br)cc2Br)c(Br)c1` | 39.81 | activator, single point |
| 19 | `O=Cc1ccccc1` | 0.001995 | activator, full curve, poor fit |
| 20 | `COc1ccc([C@@H]2CNC(=O)C2)cc1OC1CCCC1` | 0.002512 | inhibitor, full curve, poor fit |
| 21 | `CC(=O)OCC1=C(C(=O)O)N2C(=O)[C@@H](NC(=O)CSc3ccncc3)[C@@H]2SC1` | 0.631 | activator, partial curve, poor fit |
| 22 | `C[C@@H]1C(=O)N(C)C(=O)c2nc[nH]c21` | 19.95 | activator, partial curve, poor fit |
| 23 | `Cc1cc(-c2ccc(N=Nc3ccc4c(S(=O)(=O)O)cc(S(=O)(=O)O)c(N)c4c3O)c(C)c2)ccc1N=Nc1ccc2c(S(=O)(=O)O)cc(S(=O)(=O)O)c(N)c2c1O` | 3.981 | inhibitor, partial curve |
| 24 | `CCCCCOC(=O)c1ccccc1C(=O)OCCCCC` | 39.81 | activator, partial curve |
| 25 | `CCc1c2c(nc3c(C(C)C)cccc13)-c1cccc(=O)n1C2` | 19.95 | activator, partial curve |
| 26 | `C[N+]1(C)CCc2cc3c(cc2[C@@H]1[C@@H]1OC(=O)c2c1ccc1c2OCO1)OCO3` | 25.12 | activator, partial curve, poor fit |
| 27 | `CNCCCC12CCC(c3ccccc31)c1ccccc12` | 0.03981 | activator, full curve, poor fit |
| 28 | `O=C(c1cnccn1)N1CCC[C@@]2(CCN(c3ccncc3)C2)C1` | 0.07943 | activator, full curve, poor fit |
| 29 | `N[C@@H](C(=O)O)[C@H](O)C(=O)O` | 31.62 | activator, partial curve, poor fit |
| 30 | `O=C(Cc1ccccc1)OCc1ccccc1` | 31.62 | activator, partial curve |
| 31 | `COc1ccc2[nH]c3c(c2c1)CCN=C3C` | 12.59 | inhibitor, partial curve |
| 32 | `Cc1cnc(CNc2ncnc3ccc(-c4cccc(NS(C)(=O)=O)c4)cc23)cn1` | 25.12 | inhibitor, single point |
| 33 | `CN1CSC(=S)N(C)C1` | 31.62 | inhibitor, partial curve |
| 34 | `CC(C)C[C@@H](CC(=O)N[C@H](CC(=O)N[C@@H]1CCNC[C@H]1C(=O)N[C@H](CC(=O)N[C@@H](CCC(=O)O)CC(=O)O)Cc1c[nH]c2ccccc12)C(C)C)NC(=O)[C@@H]1CCCC[C@H]1N` | 15.85 | inhibitor, partial curve, poor fit |
| 35 | `CC(=O)c1ccc(S(=O)(=O)NC(=O)NC2CCCCC2)cc1` | 0.00631 | activator, full curve, poor fit |
| 36 | `Oc1ccc(-c2nc(-c3ccc(F)cc3)c(-c3ccncc3)[nH]2)cc1` | 6.31 | inhibitor, partial curve |
| 37 | `COc1cc(-c2ccc(=O)[nH]n2)ccc1OC(F)F` | 0.03981 | activator, full curve |
| 38 | `Cc1nc(NC2CCCCC2)c2nc(-c3ccccc3)n(CCCN3CCOCC3)c2n1` | 12.59 | inhibitor, partial curve |
| 39 | `CCN1CCc2nc(N)oc2CC1` | 0.2512 | activator, partial curve, poor fit |
| 40 | `CCC/C=C(\CCC)C(NC(=O)CCc1ccccc1)c1ccc(C(F)(F)F)cc1` (stereo not shown) | 19.95 | activator, partial curve |
| 41 | `COc1ccc(-n2c(=O)c(-c3cccs3)nc3cnc(N4CCN(C)CC4)nc32)cc1` | 25.12 | activator, partial curve |
| 42 | `CCCCCCCCCOc1ccc2[nH]cc(CCN)c2c1` | 0.01259 | activator, full curve, poor fit |
| 43 | `COc1ccc2c(c1OC)C(=O)O[C@@H]2[C@H]1c2c(cc3c(c2OC)OCO3)CCN1C` | 0.03162 | activator, full curve, poor fit |
| 44 | `Brc1ccc(-c2ccccc2)cc1` | 6.31 | activator, partial curve, poor fit |
| 45 | `NC[C@H](CP(=O)(O)O)c1ccc(Cl)cc1` | 10 | activator, partial curve, poor fit |
| 46 | `Nc1cc(=O)[nH]c(N)n1` | 39.81 | activator, partial curve, poor fit |
| 47 | `COc1cc2oc(-c3ccccc3)cc(=O)c2cc1OC` | 39.81 | inhibitor, single point |
| 48 | `COC(=O)N1[C@H](C)C=C[C@]1(Cc1ccccc1)C(=O)NCc1ccc(N(C)C)cc1` | 19.95 | inhibitor, partial curve |

The results are deposited in PubChem (AID530; NCATS, 2006).